Results reported in patent US5445951A, “Regioselective enzymatic deacylation of sucrose esters in anhydrous organic media” (priority 1993, dated 1995).
At least one structure is not confirmed: it was looked up by name or label, or the drawing left a doubt.

Legend:
proleather = experiment: Nucleophile screening for proleather catalyzed deacetylation of SOA in diisopropyl ether; type: biochemical, Bacillus subtilis; conditions: nucleophile 200 mM
Method: (§1) Nucleophile screening for alcalase, proleather or lipase AP 12 catalyzed deacetylation of SOA. A scintillation vial was charged successively with 100 mg of powdered enzyme prepared as described, 1.0 ml of 20 mM sucrose octaacetate (SOA) and 200 mM of the nucleophile dissolved in diisopropyl ether. Following a 5 sec sonication, the vial was incubated in a controlled-temperature shaker at 45° C. and 300 RPM for 66 hrs. A 200 μl aliquot of the reaction mixture was withdrawn and centrifuged. The supernatant was collected and evaporated under a stream of N2. The residue was reconstituted in 200 μl of acetonitrile and 10 μl of this solution was analyzed by HPLC. For screening concentration effects on enzyme activity, the same protocol was followed except the nucleophile concentration was varied from 0 to 2000 mM.

lipase AP 12 = experiment: Nucleophile screening for lipase AP 12 catalyzed deacetylation of SOA in diisopropyl ether; type: biochemical, Aspergillus niger; conditions: lipase AP 12, nucleophile 200 mM, 66 hrs
Method: as §1

CC1(C)CCCC(C)(C)N1 [tetramethylpiperidine]
% conv (proleather; 66 hrs): 32.9%
regiochem (proleather; peak height ratio 1'-OH / 6'-OH heptaacetate): 4.4
% conv (lipase AP 12): 0%
